Data published in PubChem BioAssay AID2685 (National Center for Advancing Translational Sciences (NCATS), 2010).
The list shows a part of the results. These are further read-outs of the screen, such as a control signal, another cell line or another target. No call is given for them. Most of these compounds were active or inconclusive in the main read-out, so they are no random draw. Potencies come from curve fits of mixed quality, noted in brackets.

Assay: qHTS Assay for Lipid Storage Modulators in Drosophila S3 Cells;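 on cell number change: cells counted by Cell Tracker Red CMTPX staining in the red channel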
Conditions: BODIPY lipid droplet fluorescence, 18-24 h; for cell number change: measured here: cell count max response, cells fed with added oleic acid
Method in brief: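 Drosophila S3 cells loaded with oleic acid (400 uM, as added) and compounds at several concentrations; lipid droplets imaged by 488-nm laser-scanning cytometry, 500–530 nm intensity and object ratio to cell channel. Percent activity normalized to 20 uM Triacsin C.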

[1] = measured here: cell number channel AC50, cells fed with added oleic acid
[2] = measured here: lipid fluorescence (Fed channel) AC50, cells fed with added oleic acid

| Compound | cell number change [%] | AC50 [1] | AC50 [2] |
| --- | --- | --- | --- |
| Cc1ccc(CNC(=O)c2cccc3c2C(=O)c2ccc(N4CCCCC4)cc2S3(=O)=O)cc1 | -50.1 | 0.0184 µM [falling, full curve, poor fit] | 16.4 µM [falling, partial curve] |
| CC(C)(C)c1ccc(C(=O)N/C(=C\c2cccc([N+](=O)[O-])c2)C(=O)Nc2cccc(C(=O)O)c2)cc1 | -9.39 | – | 0.58 µM [rising, single point] |
| CCc1nn(CC(=O)NCc2cccnc2)c(=O)c2cc3occc3n12 | 10.6 | – | 6.51 µM [falling, single point] |
| CCc1c(C(=O)Nc2cc(C(=O)OC)ccc2C)csc1C | -2.97 | – | 8.2 µM [rising, partial curve, poor fit] |
| CCOC(=O)CN1C(=O)N[C@H](c2ccc(Br)cc2)C(C(C)=O)=C1C | -0.802 | – | 7.31 µM [rising, partial curve] |
| CCOC(=O)c1c(NC(=O)CSc2ncnc3ccccc23)sc(C(C)=O)c1C | 39.8 | 7.31 µM [rising, partial curve] | 29.1 µM [rising, single point] |
| CC(C)N1C(=O)/C(=C\c2nc3ccccc3c(=O)n2-c2ccccc2)c2ccccc21 | -47.7 | 18.4 µM [falling, single point] | 29.1 µM [falling, single point] |
| CCSc1nnc2c(n1)OC1(CCCC1)Nc1ccccc1-2 | 36.9 | 29.1 µM [rising, single point] | 0.517 µM [rising, full curve] |
| CCOc1ccccc1CN1CCN(CC2CC2)CC1CCO (stereo unspecified) | -1.57 | – | 29.1 µM [rising, single point] |
| Cc1nn(Cc2ccccc2)c(C)c1C(=O)N1CCN(CC(=O)Nc2ccccc2Cl)CC1 | 30.1 | 0.00411 µM [rising, full curve, poor fit] | 25.9 µM [rising, single point] |
| CCOc1cc(N2CCOCC2)c(OCC)cc1NC(=O)C1=COCCO1 | -6.81 | – | 3.66 µM [rising, partial curve, poor fit] |
| CCC(=O)Nc1cccc(NC(=O)CSc2nnc(-c3ccc(NS(C)(=O)=O)cc3)n2CC)c1 | 7.82 | – | – |
| Cn1c(C(=O)N2CCC(C(=O)NCc3ccccc3)CC2)cc2sccc21 | 9.73 | – | 23.1 µM [rising, single point] |
| O=C(CSCc1c(F)cccc1Cl)Nc1cccnc1 | 1.51 | 0.366 µM [falling, full curve, poor fit] | 0.411 µM [falling, full curve, poor fit] |
| COc1ccc(N2CCN(C(=O)CC34CC5CC(CC(C5)C3)C4)CC2)c([N+](=O)[O-])c1 | 8.7 | 0.731 µM [falling, single point] | 13 µM [falling, partial curve] |
| Cc1nonc1NC(=O)CSc1nc2ccccc2cc1C#N | 17.5 | – | 0.461 µM [rising, partial curve] |
| O=C(CSC1=NCCS1)N1CCCC1 | -15.5 | – | 0.411 µM [falling, full curve] |
| Nc1ccc2c(c1Cl)C(=O)c1ccc(N)c(Cl)c1C2=O | -1.06 | – | 29.1 µM [rising, partial curve, poor fit] |
| CCOc1ccc(NC(=O)C2CC(=O)OC2c2ccccc2)cc1 (stereo unspecified) | -35.3 | – | 29.1 µM [falling, single point] |

Entries of single compounds, looked up by structure. Values in the order: cell number change [%] | AC50 [1] | AC50 [2]
Cn1c(C(=O)N2CCC(C(=O)NCc3ccccc3)CC2)cc2sccc21 as listed: 9.73 | – | 23.1 µM [rising, single point]
COc1ccc(N2CCN(C(=O)CC34CC5CC(CC(C5)C3)C4)CC2)c([N+](=O)[O-])c1 as listed: 8.7 | 0.731 µM [falling, single point] | 13 µM [falling, partial curve]
CCSc1nnc2c(n1)OC1(CCCC1)Nc1ccccc1-2 as listed: 36.9 | 29.1 µM [rising, single point] | 0.517 µM [rising, full curve]
Cc1nn(Cc2ccccc2)c(C)c1C(=O)N1CCN(CC(=O)Nc2ccccc2Cl)CC1 as listed: 30.1 | 0.00411 µM [rising, full curve, poor fit] | 25.9 µM [rising, single point]

Later entries

| Compound | cell number change [%] | AC50 [1] | AC50 [2] |
| --- | --- | --- | --- |
| COc1ccc(S(=O)(=O)N2CCOCC2)cc1Cl | -48.7 | 29.1 µM [falling, single point] | 20.6 µM [falling, single point] |
| COc1ccc2oc(C(=O)OCC(=O)N(C)C3CCS(=O)(=O)C3)c(C)c2c1 (stereo unspecified) | 67.2 | 18.4 µM [rising, partial curve, poor fit] | 0.146 µM [falling, full curve, poor fit] |
| CC(NC(=O)CCC(=O)N1CCCCCC1)c1ccccc1 (stereo unspecified) | 13.5 | – | – |
| COc1cccc(NC(=O)CSc2nc3c([nH]c4ccccc43)c(=O)n2C)c1 | 0.944 | 0.366 µM [rising, partial curve] | 0.146 µM [rising, full curve] |
| O=C(O)c1ccccc1C(=O)Nc1nc(-c2ccc3ccccc3c2)cs1 | 14.5 | 0.651 µM [rising, single point] | 0.82 µM [rising, full curve] |
| CCCn1c(-c2cccs2)nc2c1c(=O)[nH]c(=O)n2Cc1ccccc1 | -13.8 | 0.00411 µM [falling, full curve, poor fit] | – |
| Nn1c(SCC(=O)N2CCN(S(=O)(=O)c3ccccc3)CC2)nnc1-c1cccs1 | -110 | 9.2 µM [falling, partial curve] | – |
| CCCc1cc(C(=O)Nc2sc3c(c2C(=O)OCC)CCCC3)no1 | 0.598 | – | 29.1 µM [falling, single point] |
| COCC1CCN(C(=O)CCc2nnc(C3(c4ccc(Cl)cc4)CCC3)o2)C1 (stereo unspecified) | 4.46 | – | 29.1 µM [rising, single point] |
| C/C(Cl)=C\Cn1c(N2CCCCCC2)nc2c1c(=O)n(C)c(=O)n2C | 29.1 | – | – |
| CC(Sc1nnc(-c2ccccc2F)n1C1CC1)C(=O)NC(N)=O (stereo unspecified) | 4.27 | – | 20.6 µM [rising, single point] |
| CC1CCCC(C)N1C(=C(Cl)Cl)C(=C1SCCS1)[N+](=O)[O-] (stereo unspecified) | -23.8 | – | 18.4 µM [falling, single point] |
| O=C(CSc1nccn1-c1cccc(Cl)c1)Nc1ccc2c(c1)OCCO2 | -0.184 | – | 29.1 µM [rising, single point] |
| Cc1cc(C(C)(C)C)cc(S(=O)(=O)Nc2ccc(C(=O)O)cc2)c1C | 0.155 | – | – |
| COC(=O)[C@@H](NC(=O)/C=C/c1ccc(OC)cc1)C(C)C | 17.8 | 3.26 µM [falling, single point] | 4.11 µM [falling, single point] |
| O=C(Nc1ccccc1Br)c1ccc(N2CCCC2=O)cc1 | 5.72 | 6.51 µM [falling, single point] | – |
| COc1ccc(CNS(=O)(=O)c2ccc3c(c2)CC(C)N3C(=O)C2CC2)cc1 (stereo unspecified) | -34.9 | 29.1 µM [falling, single point] | 29.1 µM [falling, single point] |
| O=C(O)c1ccc(NC(=O)C(c2ccccc2)c2ccccc2)cc1 | -5.82 | – | 3.66 µM [rising, partial curve, poor fit] |
| COc1ccc(-c2csc(N(CCc3ccc(OC)c(OC)c3)C(=O)COc3ccccc3)n2)cc1 | 72.6 | 1.46 µM [rising, full curve] | 1.46 µM [rising, full curve] |

| Compound | cell number change [%] | AC50 [1] | AC50 [2] |
| --- | --- | --- | --- |
| CCOc1ccc(Cc2nc(-c3nonc3N)no2)cc1OCC | -10.2 | – | 1.64 µM [rising, full curve] |
| COc1cc(C(C)=O)ccc1OC(=O)C(C)N1C(=O)c2ccccc2C1=O (stereo unspecified) | 3.47 | – | 0.651 µM [falling, full curve] |
| CCn1c(CC(=O)Nc2cccc(OC)c2)nnc1SCC(=O)Nc1nccs1 | – | 0.411 µM [rising, full curve] | – |
| CC1OC(C)(C)OC1C1CNc2nc(NC(=O)C(C)(C)C)[nH]c(=O)c2N1C(=O)c1cccnc1 (stereo unspecified) | 131 | – | 23.1 µM [rising, partial curve] |
| CNC(=O)COc1ccc(Cl)c2cccnc12 | 28 | – | – |
| C=CCOc1cccc(C(=O)NC(c2ccccc2)C(C)C)c1 (stereo unspecified) | 18.2 | – | – |
| CN(C)C=Nc1nonc1N | -151 | 18.4 µM [falling, partial curve] | – |
| COc1cc(C(=O)Nc2nnc(CC(=O)NCc3ccccc3)s2)cc(OC)c1OC | 11 | 6.51 µM [rising, single point] | – |
| CC(=O)Nc1ccc(S(=O)(=O)NNC(=O)C2CCCCC2)cc1 | 11.6 | 6.51 µM [rising, single point] | 29.1 µM [rising, single point] |
| CC(C)=CCc1c2c(c3occ(-c4ccc(O)cc4)c(=O)c3c1O)C=CC(C)(C)O2 | -69.8 | 16.4 µM [falling, single point] | 16.4 µM [falling, partial curve] |
| CC(=O)c1ccc(S(=O)(=O)NC2CC(=O)N(c3ccc(C)cc3)C2)cc1 (stereo unspecified) | 42.2 | 16.4 µM [rising, single point] | – |
| O=C(Nc1ccc2c(c1)OCCO2)C(c1ccc(F)cc1)N1CCCCC1 (stereo unspecified) | -67.3 | 32.6 µM [falling, partial curve] | 23.1 µM [falling, partial curve] |
| COC(=O)C(Cc1ccc(O)cc1)NC(=O)CCc1ccco1 (stereo unspecified) | 8.11 | 6.51 µM [rising, partial curve] | 6.51 µM [rising, single point] |
| COCCNc1oc(-c2ccc(F)cc2)nc1C#N | -6.07 | – | 0.0291 µM [falling, full curve, poor fit] |
| CC1CCN(c2ccc(-c3cccc(NC(=O)C(F)(F)F)c3)nn2)CC1 | -61.6 | 29.1 µM [falling, single point] | – |
| Cn1nc(C(F)(F)F)c(C#N)c1N1CCN(c2cccc(C(F)(F)F)c2)CC1 | -21.2 | – | 16.4 µM [rising, single point] |
| Cc1ccc(C)c(C(=O)NCc2ccncc2)c1 | -1.01 | – | – |
| O=C(O)c1cc(-c2cccs2)nc2ccc(F)cc12 | 2.11 | – | – |
